Laboratory results taken from patent US20250152592A1, “PHARMACEUTICAL COMPOSITION COMPRISING ALLOPURINOL, FEBUXOSTAT OR PHARMACEUTICALLY ACCEPTABLE SALT THEREOF FOR PREVENTION OR TREATMENT OF CHRONIC KIDNEY DISEASE IN SUBJECT HAVING HIGH SERUM URIC ACID CONCENTRATION” (Indream Healthcare Inc., priority 2022, published 2025).
The source gives many values for each of these; only a part stands here.

Test system: patients with gout and a history of major cardiovascular diseases
Assay: eGFR over time by average serum uric acid concentration, analysis of clinical trial data
Type: in vivo, human
Procedure: In order to evaluate non-inferiority of febuxostat to allopurinol related to cardiovascular risk, a clinical trial was designed and proceeded.
A multicenter, randomized, double-blind non-inferiority trial was performed. The details of the clinical trial design have been published previously. An independent data and safety monitoring committee with access to unblinded data monitored the clinical trial. The statistical analysis for the data and the safety monitoring committee was performed by an independent statistical group (WebbWrites).
The patients were regarded as having a history of major cardiovascular diseases, if they had myocardial infarction, hospitalization for unstable angina, stroke, hospitalization for transient ischemic attack, peripheral vascular disease, or diabetes mellitus symptoms. All participants provided a prior informed consent form.
The patients were randomly assigned so that they received febuxostat or allopurinol administered once a day in a double-blind manner. The randomization was stratified according to the estimated creatinine clearance at baseline (patient group having an estimated creatinine clearance ≥60 ml per minute vs patient group having an estimated creatinine clearance ≥30 and <60 ml per minute).
The dose of allopurinol was modified according to a kidney function. The patients with the estimated creatinine clearance 60 ml or more per minute i) initially received allopurinol at a dose of 300 mg once a day, and the dose was increased in 100 mg increments monthly until the patient had the serum uric acid concentration of less than 6.0 mg per deciliter or the dosage of allopurinol was 600 mg once a day. The patient having the estimated creatinine clearance of 30 ml or more and less than 60 ml per minute initially received 200 mg of allopurinol, and then the dose was increased in 100 mg increments until the patient either had the serum uric acid concentration of less than 6.0 mg per deciliter or was receiving the allopurinol dose of 400 mg once daily.
The dose of febuxostat was not modified according to the kidney function. The patients who were randomly assigned to receive febuxostat initially received 40 mg once a daily, and continued to receive the same dosage if the serum uric acid concentration was less than 6.0 mg per deciliter after 2 weeks of the treatment. If the serum uric acid concentration was higher than 6.0 mg per deciliter at 2nd week visit, the dose of febuxostat was increased to 80 mg once daily for the remainder of the trial.
During the period, the administration of a double-blind and double-dummy trial medications was guided by an interactive voice-response system which was a procedure to prevent unblinding for the patients whose dose was not adjusted. After completing dose adjustment, the urate level was concealed from the investigators, and the treatment was managed throughout the trial using the interactive voice-response system.
Outpatient visits were conducted according to the following schedule: during screening and randomization, and at 2, 4, 6, 8, 10, 12, and 24 weeks after the randomization, and every 6 months during the subsequent years of the trial. The patients with reduced kidney function or, the patients aged 65 years or older at randomization were visited at 9 and 15 months for monitoring the serum chemical profile. If the patient agreed to be monitored, but would not return for study visit, telephone contact was made, but such method was not preferred or recommended.
In order to confirm the effect of allopurinol and febuxostat on the kidney disease, the data obtained in the clinical trial described above was analyzed.

## O=c1ncnc2[nH][nH]cc1-2 [allopurinol]
Allopurinol group, No congestive cardiac failure history, Average UA <6, Month 6
  eGFR Mean (95% CI): 67.53 (66.44-68.62) ml/min/1.73 m^2
Allopurinol group, No congestive cardiac failure history, Average UA ≥6, Month 3
  eGFR Mean (95% CI): 66.56 (64.90-68.23) ml/min/1.73 m^2
Allopurinol group, No congestive cardiac failure history, Average UA ≥6, Month 6
  eGFR Mean (95% CI): 65.99 (64.33-67.66) ml/min/1.73 m^2

## Cc1nc(-c2ccc(OCC(C)C)c(C#N)c2)sc1C(=O)O [febuxostat]
Febuxostat group, Baseline UA≥ 8, Average UA <6, Month 6
  eGFR Mean (95% CI): 61.95 (60.74-63.16) ml/min/1.73 m^2
Febuxostat group, Baseline UA≥ 8, Average UA <6, Month 12
  eGFR Mean (95% CI): 63.09 (61.87-64.32) ml/min/1.73 m^2
Febuxostat group, Baseline UA≥ 8, Average UA ≥6, Month 6
  eGFR Mean (95% CI): 62.56 (60.65-64.47) ml/min/1.73 m^2
Febuxostat group, Baseline UA≥ 8, Average UA ≥6, Month 12
  eGFR Mean (95% CI): 62.75 (60.66-64.83) ml/min/1.73 m^2
Febuxostat group, Gout ≥10 (years), Average UA <6, Baseline
  eGFR Mean (95% CI): 65.79 (64.44-67.14) ml/min/1.73 m^2
Febuxostat group, Gout ≥10 (years), Average UA <6, Month 3
  eGFR Mean (95% CI): 65.15 (63.78-66.52) ml/min/1.73 m^2
Febuxostat group, Gout ≥10 (years), Average UA <6, Month 6
  eGFR Mean (95% CI): 65.11 (63.69-66.53) ml/min/1.73 m^2
Febuxostat group, Gout ≥10 (years), Average UA <6, Month 12
  eGFR Mean (95% CI): 66.55 (65.13-67.97) ml/min/1.73 m^2
Febuxostat group, Gout ≥10 (years), Average UA <6, Month 18
  eGFR Mean (95% CI): 66.31 (64.75-67.87) ml/min/1.73 m^2
Febuxostat group, Gout ≥10 (years), Average UA <6, Month 24
  eGFR Mean (95% CI): 66.05 (64.32-67.77) ml/min/1.73 m^2
Febuxostat group, Gout ≥10 (years), Average UA <6, Month 30
  eGFR Mean (95% CI): 66.94 (65.12-68.76) ml/min/1.73 m^2
Febuxostat group, Gout ≥10 (years), Average UA <6, Month 36
  eGFR Mean (95% CI): 66.58 (64.66-68.49) ml/min/1.73 m^2
Febuxostat group, Gout ≥10 (years), Average UA <6, Month 42
  eGFR Mean (95% CI): 67.99 (65.86-70.12) ml/min/1.73 m^2
Febuxostat group, Gout ≥10 (years), Average UA <6, Month 48
  eGFR Mean (95% CI): 69.86 (67.58-72.14) ml/min/1.73 m^2
Febuxostat group, Gout ≥10 (years), Average UA <6, Month 54
  eGFR Mean (95% CI): 70.12 (67.50-72.74) ml/min/1.73 m^2
Febuxostat group, Gout ≥10 (years), Average UA <6, Month 60
  eGFR Mean (95% CI): 71.57 (68.65-74.50) ml/min/1.73 m^2
Febuxostat group, Gout ≥10 (years), Average UA <6, Week 2
  eGFR Mean (95% CI): 65.90 (64.51-67.29) ml/min/1.73 m^2
Febuxostat group, Gout ≥10 (years), Average UA ≥6, Baseline
  eGFR Mean (95% CI): 66.85 (64.41-69.28) ml/min/1.73 m^2
Febuxostat group, Gout ≥10 (years), Average UA ≥6, Month 3
  eGFR Mean (95% CI): 65.53 (63.05-68.01) ml/min/1.73 m^2
Febuxostat group, Gout ≥10 (years), Average UA ≥6, Month 6
  eGFR Mean (95% CI): 64.92 (62.53-67.31) ml/min/1.73 m^2
Febuxostat group, Gout ≥10 (years), Average UA ≥6, Month 12
  eGFR Mean (95% CI): 65.04 (62.45-67.64) ml/min/1.73 m^2
Febuxostat group, Gout ≥10 (years), Average UA ≥6, Month 18
  eGFR Mean (95% CI): 63.78 (60.85-66.70) ml/min/1.73 m^2
Febuxostat group, Gout ≥10 (years), Average UA ≥6, Month 24
  eGFR Mean (95% CI): 63.79 (60.66-66.92) ml/min/1.73 m^2
Febuxostat group, Gout ≥10 (years), Average UA ≥6, Month 30
  eGFR Mean (95% CI): 63.63 (60.01-67.26) ml/min/1.73 m^2
Febuxostat group, Gout ≥10 (years), Average UA ≥6, Month 36
  eGFR Mean (95% CI): 64.38 (60.10-68.65) ml/min/1.73 m^2
Febuxostat group, Gout ≥10 (years), Average UA ≥6, Month 42
  eGFR Mean (95% CI): 63.50 (58.94-68.06) ml/min/1.73 m^2
Febuxostat group, Gout ≥10 (years), Average UA ≥6, Month 48
  eGFR Mean (95% CI): 65.40 (60.50-70.31) ml/min/1.73 m^2
Febuxostat group, Gout ≥10 (years), Average UA ≥6, Month 54
  eGFR Mean (95% CI): 63.22 (56.77-69.67) ml/min/1.73 m^2
Febuxostat group, Gout ≥10 (years), Average UA ≥6, Month 60
  eGFR Mean (95% CI): 67.46 (59.11-75.80) ml/min/1.73 m^2
Febuxostat group, Gout ≥10 (years), Average UA ≥6, Week 2
  eGFR Mean (95% CI): 65.72 (63.06-68.37) ml/min/1.73 m^2
